Measurements taken from PubChem BioAssay AID493014 (National Center for Advancing Translational Sciences (NCATS), 2011).
The other results are listed elsewhere or left out. Shown are side measurements of this screen, not its main read-out; they come without a call. Compounds called inactive in the main read-out are mostly missing here. The note in brackets gives the kind of curve behind each potency; many fits are weak.

Test: qHTS Assay to Find Inhibitors of Chronic Active B-Cell Receptor Signaling
Conditions: ABC-DLBCL IkBa-CBG/CBR reporter, luminescence ratio (green luciferase fused to IkBa over red control in TMD8 lymphoma cells), 4 h
How it was run: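 TMD8 human ABC-DLBCL cells with doxycycline-inducible IκBα–green luciferase fusion and unfused red luciferase, in 0.5% FBS medium; compounds up to 46 uM, 4 h at 37C. Green/red luminescence ratio, filter-overlap corrected, fitted to concentration-response curves.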

[1] = measured here: CBR red luminescence, cell number
[2] = measured here: IkBa-CBG green luminescence

SMILES	AC50 [1]	AC50 [2]
CCOc1ccccc1NC(=O)CSc1nnc2[nH]c(=O)cc(-c3ccccc3)n12	2.24 µM [falling, full curve, poor fit]	–
COC(=O)CN1C(=S)N(Cc2ccccc2)C(=O)C1CC(=O)Nc1ccc(Br)cc1 (stereo not drawn)	12.6 µM [falling, partial curve]	–
COc1cc(/C(C)=N/Nc2ccc(C(=O)O)cc2)cc(OC)c1OC	0.326 µM [falling, full curve]	–
CCCCn1c(=O)n(C)c(=O)c2c(C(F)(F)F)cc(-c3ccncc3)nc21	2.31 µM [falling, full curve, poor fit]	–
NNC(=O)c1cc2cc3ccccc3nc2s1	2 µM [falling, partial curve, poor fit]	–
CCc1cc2c(=O)c(-c3ccc4c(c3)OCCO4)coc2cc1OC(=O)c1ccco1	23.1 µM [rising, single point]	–
Cc1ccccc1NC(=O)c1cc(S(=O)(=O)N2CCCCC2)cs1	6.51 µM [falling, single point]	–
CC(C)(C)c1ccccc1NC(=S)NC1CCCCC1	0.501 µM [rising, full curve]	–
CC(=O)Nc1cccc(NC(=O)c2cc([N+](=O)[O-])ccc2N2CCCCC2)c1	2.59 µM [rising, full curve, poor fit]	–
COc1ccc(-c2nc(C#N)c(NC(C)C)o2)cc1	35.5 µM [rising, single point]	–
COc1cc(/C=C/C2=CC(C)(C)NC(=S)N2)cc(OC)c1OC	2 µM [falling, full curve]	–
CCN(CC)c1nc(C(N)=O)cc(-c2ccccc2)n1	3.55 µM [falling, partial curve, poor fit]	–
CCC(=O)Nc1nc(C)c(-c2csc(Nc3cccc(C(=O)O)c3)n2)s1	11.2 µM [falling, partial curve]	–
CCOC(=O)N1CCN(Cc2nc(N)nc(Nc3ccc(C)cc3C)n2)CC1	35.5 µM [rising, single point]	–
COc1ccc(CN(C#N)c2nc(C)cc(C)n2)cc1	–	17.8 µM [falling, partial curve, poor fit]
O=C(Nc1ccc(Cl)cc1)Nc1nc(-c2ccccc2O)cs1	4.47 µM [falling, partial curve, poor fit]	–
O=c1[nH]c2ccc(NCc3ccc(OCc4ccccc4Cl)cc3)cc2[nH]1	35.5 µM [falling, single point]	–
Cc1cccc2c1-c1sc(C(=O)Nc3cccc([N+](=O)[O-])c3C)cc1CO2	16.4 µM [falling, partial curve]	–
COc1ccc(/C=N/NC(=O)c2ccc(N)cc2)cc1Cn1cc([N+](=O)[O-])cn1	2 µM [falling, full curve]	–
COc1ccc(-c2ccc3ccccc3n2)cc1OC	0.631 µM [rising, full curve, poor fit]	–
CCC1CCCCN1C(=O)CSc1nnc(-c2cccc(Cl)c2)o1 (stereo not drawn)	–	20.6 µM [rising, partial curve, poor fit]

Some values from the results shown:
Cc1ccccc1NC(=O)c1cc(S(=O)(=O)N2CCCCC2)cs1 | AC50 [1]: 6.51 µM [falling, single point]
CCN(CC)c1nc(C(N)=O)cc(-c2ccccc2)n1 | AC50 [1]: 3.55 µM [falling, partial curve, poor fit]
COC(=O)CN1C(=S)N(Cc2ccccc2)C(=O)C1CC(=O)Nc1ccc(Br)cc1 (stereo not drawn) | AC50 [1]: 12.6 µM [falling, partial curve]
COc1cc(/C(C)=N/Nc2ccc(C(=O)O)cc2)cc(OC)c1OC | AC50 [1]: 0.326 µM [falling, full curve]

(listing goes on)

SMILES	AC50 [1]	AC50 [2]
COc1ccc(-c2cnn3c4c(c(C)nc23)CCN4C(C)C)cc1OC	1.84 µM [rising, full curve, poor fit]	–
COc1ccc(-n2nc(C(=O)NCC(=O)NC(C)C)c3ccccc3c2=O)c(OC)c1	10 µM [rising, partial curve]	–
O=C(NCc1ccc(Cl)cc1)c1ccc(-c2ccccc2C(F)(F)F)o1	23.1 µM [falling, partial curve]	–
COc1ccc(/C=N/N=C(\N)c2nonc2N)cc1	14.1 µM [falling, partial curve]	–
CCOc1ccc(C(C)=O)cc1COC(=O)c1cnc(Cl)c(Cl)c1	0.794 µM [rising, full curve, poor fit]	–
C=CCn1c(SCC(=O)c2ccc(O)c(O)c2)nnc1-c1ccccc1OC	10 µM [falling, partial curve]	–
Cc1ccc(NC(=O)c2ccccc2NS(=O)(=O)c2ccc(Cl)s2)cc1S(=O)(=O)N1CCOCC1	29.1 µM [falling, single point]	–
Cc1nn(C)c(C)c1NS(=O)(=O)c1ccc(Cl)cc1	32.6 µM [rising, partial curve, poor fit]	–
Cc1nn2c3ccccc3n(C)c2nc1=O	29.1 µM [rising, partial curve, poor fit]	–
O=C1NCCC/C1=N\Nc1ccc(Br)cc1	2.82 µM [rising, partial curve, poor fit]	–
O=C(CC(C(=O)O)P(=O)(c1ccccc1)c1ccccc1)c1ccc(Br)cc1 (stereo not drawn)	3.98 µM [falling, partial curve, poor fit]	–
CNS(=O)(=O)c1cc(NC(C)=O)c(C)cc1C	23.1 µM [rising, partial curve, poor fit]	–
COC(=O)c1ccc(C2/C(=C(/O)c3ccc(Cl)cc3)C(=O)C(=O)N2C2CCS(=O)(=O)C2)cc1 (stereo not drawn)	7.94 µM [falling, partial curve, poor fit]	–
CC(=O)Nc1ccc2c(c1)nc1n2CCN(C2CCCCC2)C1	3.55 µM [rising, partial curve, poor fit]	–
Cc1ccc(S(=O)(=O)N2CCOCC2)cc1NC(=O)COc1cccc(Oc2ccccc2)c1	29.1 µM [falling, single point]	–
COc1ccc(NC(=O)c2ccccn2)cc1OC	11.6 µM [falling, partial curve]	–
Fc1cc(Br)cc(F)c1NC(=S)N1CCOCC1	14.1 µM [rising, single point]	–
CCOC(=O)c1c(SCC(=O)Nc2nc3ccccc3s2)nc(=O)[nH]c1C	0.562 µM [falling, full curve]	–
Cc1cccc(-c2nc3scc(CCNS(=O)(=O)c4c(C)noc4C)n3n2)c1	17.8 µM [falling, single point]	–
Cc1ccc2c(c1)c(=O)c1c3n2CCN(C(=O)CCl)C3CC1 (stereo not drawn)	8.2 µM [falling, partial curve, poor fit]	–
O=C(NCCCN=C1NS(=O)(=O)c2ccccc21)c1ccc(S(=O)(=O)N2CCCCC2)cc1	29.1 µM [rising, single point]	18.4 µM [falling, single point]
